pIC50: −log10 of the molar value.
Key:
Type in all cases: cell-based
MIAPaCa-2 (pancreas) = assay: In vitro cytotoxic activity MTT assay, MIAPaCa-2; settings: Homo sapiens, MIA PaCa-2; MIAPaCa-2 (pancreas) cells, exposed for 96 hours; read-out: Cytotoxicity activity IC50 (50% inhibition of cell proliferation)
Experimental: (§1) Compounds 1-16 were screened for their in vitro cytotoxic activity utilizing a 3-(4,5-dimethyl-thiazol-2-yl)-2,5-diphenyltetrazolium bromide (MTT) assay against selected cancer human cell lines consisting of PC3 (prostate), HCT116 (colon), A375 (melanoma), H1299 (lung), MIAPaCa-2 (pancreas), HL60 (leukemia), MCF7 (breast), MDA-MB-231 (breast) (T. Mosmann, J. Immunol. Meth., 1983, 65, 55-63). The cells were cultured at 37° C. in RMPI1640 medium supplemented with 10% fetal bovine serum, 50 IU/mL penicillin, and 50 μg/mL streptomycin in a 5% CO2 incubator. All cells were sub-cultured 3 times/week by trypsinisation. Viable cells were seeded and allowed to adhere for 12 hours before a test drug was added in 96-well plates at an initial density of 1.0×10^5 cells/mL. Tumor cell lines were separately exposed to various concentrations of the tested compounds followed by incubation at a temperature of 37° C. during 96 hours inside a medium of fresh RMPI 1640. Cells were subsequently incubated at 37° C. using MTT at 0.5 mg/mL during 4 hours. After removal of supernatant, formazan crystals were dissolved in isopropanol and the optical density was measured at 570 nm. CX-4945 was used as a positive control.

HCT116 (colon) = assay: In vitro cytotoxic activity MTT assay, HCT116; settings: Homo sapiens, HCT-116; HCT116 (colon) cells, exposed for 96 hours; read-out: Cytotoxicity activity IC50 (50% inhibition of cell proliferation)
Experimental: as §1

PC3 (prostate) = assay: In vitro cytotoxic activity MTT assay, PC3; settings: Homo sapiens, Prostate cell; PC3 (prostate) cells, exposed for 96 hours; read-out: Cytotoxicity activity IC50 (50% inhibition of cell proliferation)
Experimental: as §1

HL60 (leukemia) = assay: In vitro cytotoxic activity MTT assay, HL60; settings: Homo sapiens, HL-60; HL60 (leukemia) cells, exposed for 96 hours; read-out: Cytotoxicity activity IC50 (50% inhibition of cell proliferation)
Experimental: as §1

MCF7 (breast) = assay: In vitro cytotoxic activity MTT assay, MCF7; settings: Homo sapiens; MCF7 (breast) cells, exposed for 96 hours; read-out: Cytotoxicity activity IC50 (50% inhibition of cell proliferation)
Experimental: as §1

H1299 (lung) = assay: In vitro cytotoxic activity MTT assay, H1299; settings: Homo sapiens, NCI-H1299; H1299 (lung) cells, exposed for 96 hours; read-out: Cytotoxicity activity IC50 (50% inhibition of cell proliferation)
Experimental: as §1

MDA-MB-231 (breast) = assay: In vitro cytotoxic activity MTT assay, MDA-MB-231; settings: Homo sapiens; MDA-MB-231 (breast) cells, exposed for 96 hours; read-out: Cytotoxicity activity IC50 (50% inhibition of cell proliferation)
Experimental: as §1

A375 (melanoma) = assay: In vitro cytotoxic activity MTT assay, A375; settings: Homo sapiens, A-375; A375 (melanoma) cells, exposed for 96 hours; read-out: Cytotoxicity activity IC50 (50% inhibition of cell proliferation)
Experimental: as §1

Q: How did the pIC50 (MIAPaCa-2 (pancreas)) turn out when `O=C(O)c1ccc2c(c1)nc(Nc1cccc(Cl)c1)c1ccncc12` [CX-4945, Silmitasertib, reference compound] was run?
A: 6.00

Q: And the pIC50 (HCT116 (colon))?
A: 5.64

Q: And the pIC50 (PC3 (prostate))?
A: 5.70

Q: What about the pIC50 (HL60 (leukemia)) of the same compound?
A: 5.43

Q: What about the pIC50 (MCF7 (breast)) of the same compound?
A: 5.04

Q: What about the pIC50 (H1299 (lung)) of the same compound?
A: 5.64

Q: What about the pIC50 (MDA-MB-231 (breast)) of the same compound?
A: 5.21

Q: What about the pIC50 (A375 (melanoma)) of the same compound?
A: 5.39

— patent publication US12122775B1, “Substituted pyrido[4,3-e]pyrrolo[1,2-a]pyrazines as CK2 inhibitors” (KING FAISAL UNIVERSITY, priority 2024, dated 2024)
